Measured values reported in patent US20160200813A1.
Residue numbers refer to the chain shown, from its start. Results are given in words; binding and its absence hold for the method and conditions named. Some entries that bind do so weakly or less than the wild type. Each block holds one binder with its values, some of them ahead of it.

Amino acid sequences for entries named in this document (tags omitted). A change or cut given only in a name is not applied to a line headed by its entry.
UniProt Q14114: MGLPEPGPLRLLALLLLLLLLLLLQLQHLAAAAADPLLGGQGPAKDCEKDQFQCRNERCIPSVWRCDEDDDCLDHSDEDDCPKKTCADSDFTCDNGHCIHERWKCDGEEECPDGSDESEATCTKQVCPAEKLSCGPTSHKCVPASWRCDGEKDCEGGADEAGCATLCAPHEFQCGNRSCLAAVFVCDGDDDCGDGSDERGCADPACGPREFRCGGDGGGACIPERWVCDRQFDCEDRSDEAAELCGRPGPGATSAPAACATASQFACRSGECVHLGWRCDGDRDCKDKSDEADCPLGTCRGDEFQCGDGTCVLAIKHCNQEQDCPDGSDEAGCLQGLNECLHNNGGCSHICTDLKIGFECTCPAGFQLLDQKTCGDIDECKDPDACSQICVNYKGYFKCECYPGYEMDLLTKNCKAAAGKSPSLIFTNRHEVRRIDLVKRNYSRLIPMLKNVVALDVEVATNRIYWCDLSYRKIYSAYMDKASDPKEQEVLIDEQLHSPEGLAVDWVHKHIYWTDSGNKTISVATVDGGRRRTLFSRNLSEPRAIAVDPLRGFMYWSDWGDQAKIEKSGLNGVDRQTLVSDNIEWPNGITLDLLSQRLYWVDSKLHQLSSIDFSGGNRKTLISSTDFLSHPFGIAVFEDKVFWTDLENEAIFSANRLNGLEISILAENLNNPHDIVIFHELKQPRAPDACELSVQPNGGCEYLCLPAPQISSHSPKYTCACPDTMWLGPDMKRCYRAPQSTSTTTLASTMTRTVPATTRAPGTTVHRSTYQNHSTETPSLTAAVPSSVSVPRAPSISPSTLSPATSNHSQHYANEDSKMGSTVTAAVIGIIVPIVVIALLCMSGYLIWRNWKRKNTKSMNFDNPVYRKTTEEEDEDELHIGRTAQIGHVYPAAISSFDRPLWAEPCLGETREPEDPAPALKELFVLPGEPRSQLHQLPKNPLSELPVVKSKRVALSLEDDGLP

What was measured:
[1] = molecular target: Human LRP-8 (isoform 3) expressed on cells (human) (UniProt Q14114); assay: cell-based binding assay (FIG. 13)
[2] = molecular target: Human LRP-8 (isoform 3) expressed on cells (human) (UniProt Q14114); assay: flow cytometry on cells transiently transfected with pB-LRP8-hum against an irrelevant construct (Example 1.9); isotype printed IgG2a/k
[3] = molecular target: Human LRP-8 (isoform 3) expressed on cells (human) (UniProt Q14114); assay: cell-based MSD assay on hLRP8-293 cells
[4] = molecular target: Human LRP-8 (isoform 3) expressed on cells (human) (UniProt Q14114); assay: cell-based MSD assay
[5] = molecular target: Human LRP-8 (isoform 3) expressed on cells (human) (UniProt Q14114); assay: cell-based MSD binding (Table 17)
[6] = molecular target: Human LRP-8 (isoform 3) expressed on cells (human) (UniProt Q14114); assay: cell-based MSD binding; species of LRP-8 not given
[7] = molecular target: Human LRP-8 (isoform 3) expressed on cells (human) (UniProt Q14114); assay: Reactivity column of Table 10
[8] = molecular target: Human LRP-8 (isoform 3) expressed on cells (human) (UniProt Q14114); assay: binding to LRP-8 transfected HEK293 cells
[9] = molecular target: Human LRP-8 (isoform 3) expressed on cells (human) (UniProt Q14114); assay: FACS, hybridoma supernatant on hLRP-8-HEK293 stable cells (Example 2.2); bar series 3, 9, 27, 81 without unit; y axis without title
[10] = molecular target: Human LRP-8 (isoform 3) expressed on cells (human) (UniProt Q14114); assay: flow cytometry on cells transiently transfected with pB-LRP8-hum against an irrelevant construct (Example 1.9); isotype printed IgG2b/k

B4: BGK-7F7 (GENOVAC candidate clone of Table 17) (antibody, V domains shown)
VH: QVTLKESGPGILQPSQTLSLTCTFSGFSLSTYGLGVGWIRQPSGKGLEWLANIWWDDAKYYNPSLKNRLTISKDTSNNQAFLKIPNVDTADTARYYCARTTKPYYFDYWGQGVMVTVSS
VL: HFVLAQPNSVSTNLGSTVKLSCKRSTANIGSNYVNWYQQHEGRSPTTLIYRDDRRPDGVPDRFSGSIDRSSNSALLTINNVQTEDEADYFCQSYSSGINIFGGGTKLTVL
binding [5]: binds
binding [6]: binds

B7: chimeric anti-LRP-8 ML199.11H1.5B2 antibody [mu/hu IgG1/k] LALA (antibody, V domains shown)
VH: EVQLVESGGDLVKPGGSLKLSCAASRFTFSNYGMSWVRQTPDKRLEWVATISSGGRYTYYPDSVKGRFTISRDNAKNTLYLQMSSLRSEDTAMYYCARDYLYAMDYWGQGTSVTVSS
VL: DVVMTQTPLSLPVSLGDQASISCRSSQSLVYSNGNTYLHWYLQKPGQSPKVLMYKVSNRFSGVSDRFSGSGSGTDFTLKISRVEAEDLGVYFCSQSTHVPLTFGAGTKLELK
binding [1]: binds

B8: anti-LRP-8 ML201-8F3.3D7 murine antibody (muFc) (antibody, V domains shown)
VH: B7 VH with Y32F
VL: B7 VL
binding [8]: binds
binding [9]: binds

B9: anti-LRP-8 BGK.2C8.E6.D3 [r/m IgG2a/K] (antibody, V domains shown)
VH: QVTLKESGPGILQPSQTLSLTCTFSGFSLNTYGMGVGWVRQPSGKGLEWLANIWWDDDKFYNPSLKNRLTVSKDTSNNQAFLRITNGDTADTATYFCARILGEDIGGALDAWGQGTSVTVSS
VL: DTVLTQSPALAVSPGERVSISCRASEGVNSYMHWYQQNPGQQSKLLIYRTSNLASGVPARFGGSGSGTDFTLTIDPVEADDTATYFCQQSWNDPPTFGGGTKLELK
binding [10]: binds

The next lines start with the values.

binding [1]: binds
B1: anti-LRP-8 BGK-9D10-2 antibody (CL-105967) (antibody, V domains shown)
VH: EVQLVESGGGLVQSGRSLKLSCAASGFTFSNYYMAWVRQAPKKGLEWVATITTSGSRSFYPDSVKGRFTISRDNAKSSLYLQINSLKSEDTATYYCARRGPLGYFDHWGRGVMVTVSS
VL: DIQMTQSPPSLPASLGDKVTITCQASQNINKYIAWYQQKPGKAPRLLIRFTSTLESDTPSRFSGSGSGRDYSFSISNVESEDFASYYCLHYDNLPPWTFGGGTKLELK

binding [2]: binds
B2: anti-LRP-8 BGK.6E3.F4 [r/m IgG2a/K] (antibody, V domains shown)
VH: EVQLVESGGGLVQPGKSLKLSCAASGFTFSDYNMAWVRQAPKKGLEWVATIMYDGSRTFYRDSVKGRYTFSRDNAKSTLYLQMDSLRSEDTATYYCATGRNWFAYWGQGTLVTVSS
VL: DIIMTQSPSSLAVSAGETVTINCKSSQSLLSSGKQKNYLAWYQQKPGQSPKLLIYLASTRESGVPDRFIGSGSGTDFTLTISSMQAEDLAIYYCQQHYDTPLTFGSGTKLEIK

binding [1]: binds
binding [3]: binds
binding [4]: binds
B3: anti-LRP-8 BGK-2C8.8C antibody (antibody, V domains shown)
VH: EVQLVESGGGLVQPGRSLKLSCAASGFTVSDYYMAWVRQAPKKGLEWVASISYEGSSTYYGDSVKGRFTISRDNAKSILYLQMNSLRSEDTATYYCARPLRYYGYNYRFAYWGQGTLVTVSS
VL: DIQMSQSPPVLSASVGDRVTLSCKASQNIHKNLDWYQQKHGEAPKLLIYYTDNLQTGIPSRFSGSGSGTDYTLTISSLQPEDVATYYCYQYNSGPTFGAGTKLELQ

binding [2]: binds
B5: anti-LRP-8 BGK.5D10.E4 [r/m IgG2a/K] (antibody, V domains shown)
VH: QVQLRETGPDLVQPTQTLSLTCTVSGFSLTNYPVQWVRQPPGSGLEWLGIMWPSGAADFNPALKSRLSISRDTSKSQFFLRMDNLQTDDTAIYFCARGRGYSSPYAMDAWGQGTSVTVSS
VL: DIQMTQSPASLSASLGETVSIECLASEDIYNNLAWYQQKPGKSPHLLIHFTSNLQDGVPSRFSGSGSGTQYSLKINSLESEDGATYFCLQDSEYPLTFGSGTKLEIK

binding [7]: binds
binding [8]: binds
binding [9]: binds
B6: anti-LRP-8 ML199-11H1.5B2 murine antibody (muFc) (antibody, V domains shown)
VH: B7 VH
VL: B7 VL

binding [8]: binds
binding [9]: binds
B10: anti-LRP-8 ML201-2B4.2B1.2H10 murine antibody (muFc) (antibody, V domains shown)
VH: DVKLVASGGGLVKPGGSLKLSCAASGFTLSRYAMSWVRQTPEKRLEWVAYIRNGGDYIYYADTVKGRFTISRDNARNTLYLQMSSLKSEDTAMYYCTREGSYYNFDYWGQGTTLTVSS
VL: DVLMTQTPLSLPVSLGDQASISCRSSQSIVHSNGNTYLEWYLQKPGQSPNLLIFKVSNRFSGVPDRFIGSGSGTDFTLKISRVEAEDLGVYYCFQGSHVPWTFGGGTKLEIK
